Test results published in the supplement of paper PMC12823440, “Inhibitors supercharge kinase turnover through native proteolytic circuits” (Nature, 2025).
Structures can show the parent of a compound that is named as a salt. The list shows a part of the results. Hit calls seldom repeat between salt and free forms of one compound.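 In K562 cells expressing nanoluciferase-fused kinases, luminescence was recorded at 4 h intervals between 2 and 18 h, normalized as percent of control with DMSO at 100% and a positive control at 0%. A significant (2 sigma) signal drop marks a time point as decreased. The authors' rule for a hit is not shown and takes in more than the number of time points.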

By UniProt entry, the sequences of proteins in these tests, tags left out. Where a name states a change or a piece, a line headed by the entry shows the natural chain unless it says otherwise.
UniProt P50613: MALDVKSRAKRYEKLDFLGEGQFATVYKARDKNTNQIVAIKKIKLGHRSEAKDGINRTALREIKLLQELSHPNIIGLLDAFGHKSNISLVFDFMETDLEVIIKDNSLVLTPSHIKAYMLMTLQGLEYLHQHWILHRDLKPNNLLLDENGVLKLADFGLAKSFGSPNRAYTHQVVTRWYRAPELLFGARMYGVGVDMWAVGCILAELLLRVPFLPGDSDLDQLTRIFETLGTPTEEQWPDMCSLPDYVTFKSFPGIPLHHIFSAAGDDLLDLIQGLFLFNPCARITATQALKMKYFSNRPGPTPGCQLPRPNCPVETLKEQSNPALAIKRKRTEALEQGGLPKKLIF
UniProt P50750, whole entry: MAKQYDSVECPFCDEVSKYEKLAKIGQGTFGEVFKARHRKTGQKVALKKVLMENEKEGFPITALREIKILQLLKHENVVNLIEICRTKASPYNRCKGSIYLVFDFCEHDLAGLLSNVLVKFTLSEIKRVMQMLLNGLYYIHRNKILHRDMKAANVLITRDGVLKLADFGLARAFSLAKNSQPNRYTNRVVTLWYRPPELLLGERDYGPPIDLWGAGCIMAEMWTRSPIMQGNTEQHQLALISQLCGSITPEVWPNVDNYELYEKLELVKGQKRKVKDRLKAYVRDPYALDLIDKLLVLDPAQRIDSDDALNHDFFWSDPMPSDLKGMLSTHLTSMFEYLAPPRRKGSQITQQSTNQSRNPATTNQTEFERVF
UniProt O96017, whole entry: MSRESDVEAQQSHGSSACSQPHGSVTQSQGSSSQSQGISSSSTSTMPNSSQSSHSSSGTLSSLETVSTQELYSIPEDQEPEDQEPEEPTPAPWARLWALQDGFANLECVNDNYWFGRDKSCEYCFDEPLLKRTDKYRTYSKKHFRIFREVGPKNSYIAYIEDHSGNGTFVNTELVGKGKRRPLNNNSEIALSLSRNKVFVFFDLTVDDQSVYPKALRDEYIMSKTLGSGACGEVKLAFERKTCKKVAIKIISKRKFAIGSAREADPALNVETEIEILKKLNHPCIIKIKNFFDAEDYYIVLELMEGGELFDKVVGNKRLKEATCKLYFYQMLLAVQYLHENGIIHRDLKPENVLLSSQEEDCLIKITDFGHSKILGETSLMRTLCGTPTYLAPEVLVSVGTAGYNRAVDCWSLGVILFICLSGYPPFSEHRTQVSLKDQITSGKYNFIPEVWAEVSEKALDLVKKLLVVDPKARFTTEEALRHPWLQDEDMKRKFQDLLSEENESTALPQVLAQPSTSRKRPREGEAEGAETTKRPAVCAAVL
UniProt P07333, whole entry: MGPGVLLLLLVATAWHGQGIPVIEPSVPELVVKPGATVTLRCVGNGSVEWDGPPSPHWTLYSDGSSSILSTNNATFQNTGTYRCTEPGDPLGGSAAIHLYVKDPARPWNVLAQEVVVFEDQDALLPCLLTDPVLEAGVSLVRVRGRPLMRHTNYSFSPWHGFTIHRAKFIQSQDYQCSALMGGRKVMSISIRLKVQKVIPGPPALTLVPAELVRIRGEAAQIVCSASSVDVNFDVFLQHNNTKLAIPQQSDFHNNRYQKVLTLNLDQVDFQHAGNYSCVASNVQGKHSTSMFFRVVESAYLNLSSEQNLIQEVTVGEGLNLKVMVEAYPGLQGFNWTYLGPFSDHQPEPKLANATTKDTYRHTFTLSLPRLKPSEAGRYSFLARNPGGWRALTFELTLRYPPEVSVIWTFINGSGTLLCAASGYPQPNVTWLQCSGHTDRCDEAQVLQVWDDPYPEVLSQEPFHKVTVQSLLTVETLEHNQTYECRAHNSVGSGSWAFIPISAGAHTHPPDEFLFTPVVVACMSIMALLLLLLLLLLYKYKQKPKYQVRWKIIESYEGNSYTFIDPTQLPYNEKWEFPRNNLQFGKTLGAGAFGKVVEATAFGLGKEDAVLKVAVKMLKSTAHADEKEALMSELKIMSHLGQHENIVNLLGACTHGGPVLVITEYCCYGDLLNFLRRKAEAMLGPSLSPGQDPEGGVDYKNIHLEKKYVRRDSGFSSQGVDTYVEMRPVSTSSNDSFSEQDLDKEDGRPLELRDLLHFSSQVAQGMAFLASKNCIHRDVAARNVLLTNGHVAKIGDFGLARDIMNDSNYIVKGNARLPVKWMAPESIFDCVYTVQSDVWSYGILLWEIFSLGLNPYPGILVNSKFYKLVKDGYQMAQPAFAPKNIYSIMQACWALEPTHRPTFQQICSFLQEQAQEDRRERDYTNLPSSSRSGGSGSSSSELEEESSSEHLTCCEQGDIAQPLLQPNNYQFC
UniProt P41240: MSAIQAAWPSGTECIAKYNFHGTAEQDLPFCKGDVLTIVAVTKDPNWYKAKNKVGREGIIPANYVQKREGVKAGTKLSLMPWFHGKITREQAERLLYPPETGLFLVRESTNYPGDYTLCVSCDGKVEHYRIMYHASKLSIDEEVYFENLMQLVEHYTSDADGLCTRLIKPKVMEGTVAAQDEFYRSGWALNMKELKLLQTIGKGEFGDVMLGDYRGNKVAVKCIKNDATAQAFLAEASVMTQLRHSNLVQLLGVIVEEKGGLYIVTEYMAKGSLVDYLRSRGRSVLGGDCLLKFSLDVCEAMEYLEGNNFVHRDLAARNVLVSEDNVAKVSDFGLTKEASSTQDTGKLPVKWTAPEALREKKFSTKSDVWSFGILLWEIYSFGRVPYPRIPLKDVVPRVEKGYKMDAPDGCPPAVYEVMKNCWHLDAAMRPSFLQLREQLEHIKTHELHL
UniProt P48729: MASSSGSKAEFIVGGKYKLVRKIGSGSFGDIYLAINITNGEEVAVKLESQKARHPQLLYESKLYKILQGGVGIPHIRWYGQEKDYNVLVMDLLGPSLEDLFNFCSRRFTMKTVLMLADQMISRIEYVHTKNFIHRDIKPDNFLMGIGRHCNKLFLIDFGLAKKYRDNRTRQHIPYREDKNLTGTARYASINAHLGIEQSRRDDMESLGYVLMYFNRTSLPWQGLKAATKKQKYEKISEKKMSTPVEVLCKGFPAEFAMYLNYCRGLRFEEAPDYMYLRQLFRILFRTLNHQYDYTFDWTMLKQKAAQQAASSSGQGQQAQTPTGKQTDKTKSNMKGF
UniProt P48730: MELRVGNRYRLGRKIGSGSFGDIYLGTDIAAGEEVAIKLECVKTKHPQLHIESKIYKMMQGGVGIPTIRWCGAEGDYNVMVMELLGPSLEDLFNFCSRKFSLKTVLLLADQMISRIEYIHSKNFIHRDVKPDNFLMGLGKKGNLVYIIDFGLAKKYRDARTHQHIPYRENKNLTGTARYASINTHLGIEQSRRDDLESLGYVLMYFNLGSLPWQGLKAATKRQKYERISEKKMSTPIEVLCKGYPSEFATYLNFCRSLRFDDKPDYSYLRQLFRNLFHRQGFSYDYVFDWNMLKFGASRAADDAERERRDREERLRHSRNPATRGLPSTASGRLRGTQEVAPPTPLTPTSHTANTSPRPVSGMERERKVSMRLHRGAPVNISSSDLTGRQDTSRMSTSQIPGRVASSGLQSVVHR
UniProt Q08345: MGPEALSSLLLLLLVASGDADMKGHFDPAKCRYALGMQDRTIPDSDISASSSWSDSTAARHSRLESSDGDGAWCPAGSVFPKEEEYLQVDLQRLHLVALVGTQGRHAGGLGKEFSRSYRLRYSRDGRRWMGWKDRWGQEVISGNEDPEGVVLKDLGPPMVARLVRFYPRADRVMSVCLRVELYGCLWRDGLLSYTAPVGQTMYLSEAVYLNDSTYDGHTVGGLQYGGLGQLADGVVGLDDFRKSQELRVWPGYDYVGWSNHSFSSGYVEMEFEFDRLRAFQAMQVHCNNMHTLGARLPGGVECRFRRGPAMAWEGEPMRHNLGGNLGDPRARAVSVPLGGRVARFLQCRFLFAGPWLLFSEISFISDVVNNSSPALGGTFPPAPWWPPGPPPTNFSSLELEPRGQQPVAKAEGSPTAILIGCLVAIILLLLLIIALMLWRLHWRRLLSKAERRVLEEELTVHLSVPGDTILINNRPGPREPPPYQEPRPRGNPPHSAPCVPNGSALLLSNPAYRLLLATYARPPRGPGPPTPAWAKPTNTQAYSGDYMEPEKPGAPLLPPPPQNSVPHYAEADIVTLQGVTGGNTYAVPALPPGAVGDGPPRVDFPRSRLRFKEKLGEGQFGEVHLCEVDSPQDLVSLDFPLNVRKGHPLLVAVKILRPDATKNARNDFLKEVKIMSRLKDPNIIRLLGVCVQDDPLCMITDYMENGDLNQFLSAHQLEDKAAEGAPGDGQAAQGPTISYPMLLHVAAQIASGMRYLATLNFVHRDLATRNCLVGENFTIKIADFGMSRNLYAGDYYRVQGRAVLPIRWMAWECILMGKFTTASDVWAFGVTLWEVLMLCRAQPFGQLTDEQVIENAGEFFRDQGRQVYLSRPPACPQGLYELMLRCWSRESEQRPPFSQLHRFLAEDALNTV
UniProt Q9Y463, whole entry, looked up: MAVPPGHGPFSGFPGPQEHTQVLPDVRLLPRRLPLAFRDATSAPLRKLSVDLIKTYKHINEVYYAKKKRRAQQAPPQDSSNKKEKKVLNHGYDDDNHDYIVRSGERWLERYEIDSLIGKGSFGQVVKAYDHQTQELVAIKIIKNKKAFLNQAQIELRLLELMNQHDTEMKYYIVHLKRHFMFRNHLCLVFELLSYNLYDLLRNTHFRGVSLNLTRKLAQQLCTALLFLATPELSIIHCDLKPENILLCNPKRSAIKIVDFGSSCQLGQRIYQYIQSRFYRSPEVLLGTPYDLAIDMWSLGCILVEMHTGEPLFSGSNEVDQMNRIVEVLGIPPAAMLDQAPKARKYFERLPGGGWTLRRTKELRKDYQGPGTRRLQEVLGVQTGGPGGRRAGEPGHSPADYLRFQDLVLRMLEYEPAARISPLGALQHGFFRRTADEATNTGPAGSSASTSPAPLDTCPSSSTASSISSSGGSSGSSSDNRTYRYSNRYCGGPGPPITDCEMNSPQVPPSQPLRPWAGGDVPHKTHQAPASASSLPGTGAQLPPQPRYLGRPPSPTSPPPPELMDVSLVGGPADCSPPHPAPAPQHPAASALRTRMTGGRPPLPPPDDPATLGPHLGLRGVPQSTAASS
UniProt Q92630: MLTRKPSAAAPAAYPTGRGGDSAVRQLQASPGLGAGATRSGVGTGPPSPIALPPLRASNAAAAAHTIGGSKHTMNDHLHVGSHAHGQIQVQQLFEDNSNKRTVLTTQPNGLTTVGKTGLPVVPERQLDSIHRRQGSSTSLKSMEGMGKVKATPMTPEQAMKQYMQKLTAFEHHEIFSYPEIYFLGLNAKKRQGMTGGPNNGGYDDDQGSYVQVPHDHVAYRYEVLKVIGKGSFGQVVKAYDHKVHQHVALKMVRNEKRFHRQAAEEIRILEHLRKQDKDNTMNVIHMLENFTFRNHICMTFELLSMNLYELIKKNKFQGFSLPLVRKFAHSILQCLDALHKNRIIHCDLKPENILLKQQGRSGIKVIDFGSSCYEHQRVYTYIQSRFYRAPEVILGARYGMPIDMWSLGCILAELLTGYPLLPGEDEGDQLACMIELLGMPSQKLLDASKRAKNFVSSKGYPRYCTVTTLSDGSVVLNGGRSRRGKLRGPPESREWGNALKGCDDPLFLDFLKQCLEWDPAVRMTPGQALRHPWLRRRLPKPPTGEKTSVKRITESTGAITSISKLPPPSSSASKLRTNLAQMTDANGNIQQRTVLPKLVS

Key:
Experiment in all cases: kinase-Nluc reporter destabilization hit call (1 = scored as downregulated) (binary); higher = compound decreases kinase abundance
Settings in all cases: K562, 2-18 h
CDK7 = CDK7 (UniProt P50613)
CDK9 = CDK9 (UniProt P50750)
CHEK2 = CHEK2 (UniProt O96017)
CSF1R = CSF1R (UniProt P07333)
CSK = CSK (UniProt P41240)
CSNK1A1 = CSNK1A1 (UniProt P48729)
CSNK1D = CSNK1D (UniProt P48730)
DDR1 = DDR1 (UniProt Q08345)
DYRK1B = DYRK1B (UniProt Q9Y463)
DYRK2 = DYRK2 (UniProt Q92630)

Measured: kinase-Nluc reporter destabilization hit call

Cc1cc(Nc2ncc(Cl)c(Nc3ccccc3S(=O)(=O)C(C)C)n2)c(OC(C)C)cc1C1CCNCC1 [Ceritinib]
inactive: CDK7; 2.5 µM 0 | CDK9; 2.5 µM 0 | CHEK2; 2.5 µM 0 | CSF1R; 2.5 µM 0 | CSK; 2.5 µM 0 | CSNK1A1; 2.5 µM 0 | CSNK1D; 2.5 µM 0 | DDR1; 2.5 µM 0 | DYRK1B; 2.5 µM 0 | DYRK2; 2.5 µM 0

CN1CCCN(C(=O)c2cccc(-c3ccc(/C=C4/C(=O)Nc5ccc(Cl)cc54)o3)c2)CC1 [CX-6258 (hydrochloride hydrate)]
inactive: CDK7; 2.5 µM 0 | CDK9; 2.5 µM 0 | CHEK2; 2.5 µM 0 | CSF1R; 2.5 µM 0 | CSK; 2.5 µM 0 | CSNK1A1; 2.5 µM 0 | CSNK1D; 2.5 µM 0 | DDR1; 2.5 µM 0 | DYRK1B; 2.5 µM 0 | DYRK2; 2.5 µM 0

CN(C)C(=O)c1cc2cnc(Nc3ccc(N4CCNCC4)cn3)nc2n1C1CCCC1 [Ribociclib]
inactive: CDK7; 10 µM 0 | CDK9; 10 µM 0 | CHEK2; 10 µM 0 | CSF1R; 10 µM 0 | CSK; 10 µM 0 | CSNK1A1; 10 µM 0 | CSNK1D; 10 µM 0 | DDR1; 10 µM 0 | DYRK1B; 10 µM 0 | DYRK2; 10 µM 0

CN(C)C/C=C/C(=O)Nc1cc2c(Nc3ccc(F)c(Cl)c3)ncnc2cc1O[C@H]1CCOC1 [Afatinib]
active: CDK9; 10 µM 1
inactive: CDK7; 10 µM 0 | CHEK2; 10 µM 0 | CSF1R; 10 µM 0 | CSK; 10 µM 0 | CSNK1A1; 10 µM 0 | CSNK1D; 10 µM 0 | DDR1; 10 µM 0 | DYRK1B; 10 µM 0 | DYRK2; 10 µM 0

CNc1ncc2cc(-c3ccc(-c4cccc(C)n4)cc3Cl)c(=O)n(C[C@H]3OC[C@H](N)CO3)c2n1
inactive: CDK7; 10 µM 0 | CDK9; 10 µM 0 | CHEK2; 10 µM 0 | CSF1R; 10 µM 0 | CSK; 10 µM 0 | CSNK1A1; 10 µM 0 | CSNK1D; 10 µM 0 | DDR1; 10 µM 0 | DYRK1B; 10 µM 0 | DYRK2; 10 µM 0

C=CC(=O)Nc1cc2c(Nc3ccc(F)c(Cl)c3)ncnc2cc1C#CC(C)(C)N1CCN(C)CC1 [AV-412 (free base)]
inactive: CDK7; 2.5 µM 0 | CDK9; 2.5 µM 0 | CHEK2; 2.5 µM 0 | CSF1R; 2.5 µM 0 | CSK; 2.5 µM 0 | CSNK1A1; 2.5 µM 0 | CSNK1D; 2.5 µM 0 | DYRK1B; 2.5 µM 0 | DYRK2; 2.5 µM 0
active: DDR1; 2.5 µM 1

FC(F)(F)c1ccc(CNc2ccc(Cc3c[nH]c4ncc(Cl)cc34)cn2)cn1 [Pexidartinib]
inactive: CDK7; 10 µM 0 | CDK9; 10 µM 0 | CHEK2; 10 µM 0 | CSF1R; 10 µM 0 | CSK; 10 µM 0 | CSNK1A1; 10 µM 0 | CSNK1D; 10 µM 0 | DDR1; 10 µM 0 | DYRK1B; 10 µM 0 | DYRK2; 10 µM 0

O=C(Nc1cnn2ccc(N3CCC[C@@H]3c3cc(F)ccc3F)nc12)N1CC[C@H](O)C1 [Larotrectinib sulfate]
inactive: CDK7; 10 µM 0 | CDK9; 10 µM 0 | CHEK2; 10 µM 0 | CSF1R; 10 µM 0 | CSK; 10 µM 0 | CSNK1A1; 10 µM 0 | CSNK1D; 10 µM 0 | DDR1; 10 µM 0 | DYRK1B; 10 µM 0 | DYRK2; 10 µM 0

C=CC(=O)Nc1cc(Nc2ncc(C(=O)OC(C)C)c(-c3cn(C)c4ccccc34)n2)c(OC)cc1N(C)CCN(C)C [Mobocertinib (succinate)]
inactive: CDK7; 10 µM 0 | CDK9; 10 µM 0 | CHEK2; 10 µM 0 | CSF1R; 10 µM 0 | CSK; 10 µM 0 | CSNK1A1; 10 µM 0 | CSNK1D; 10 µM 0 | DDR1; 10 µM 0 | DYRK1B; 10 µM 0 | DYRK2; 10 µM 0

3 compounds from above, arranged by count of non-hydrogen atoms, smallest number first.
O=C(Nc1cnn2ccc(N3CCC[C@@H]3c3cc(F)ccc3F)nc12)N1CC[C@H](O)C1 [Larotrectinib sulfate]
inactive: CDK7; 10 µM 0 | CDK9; 10 µM 0 | CHEK2; 10 µM 0 | CSF1R; 10 µM 0 | CSK; 10 µM 0 | CSNK1A1; 10 µM 0 | CSNK1D; 10 µM 0 | DDR1; 10 µM 0 | DYRK1B; 10 µM 0 | DYRK2; 10 µM 0

CNc1ncc2cc(-c3ccc(-c4cccc(C)n4)cc3Cl)c(=O)n(C[C@H]3OC[C@H](N)CO3)c2n1
inactive: CDK7; 10 µM 0 | CDK9; 10 µM 0 | CHEK2; 10 µM 0 | CSF1R; 10 µM 0 | CSK; 10 µM 0 | CSNK1A1; 10 µM 0 | CSNK1D; 10 µM 0 | DDR1; 10 µM 0 | DYRK1B; 10 µM 0 | DYRK2; 10 µM 0

C=CC(=O)Nc1cc(Nc2ncc(C(=O)OC(C)C)c(-c3cn(C)c4ccccc34)n2)c(OC)cc1N(C)CCN(C)C [Mobocertinib (succinate)]
inactive: CDK7; 10 µM 0 | CDK9; 10 µM 0 | CHEK2; 10 µM 0 | CSF1R; 10 µM 0 | CSK; 10 µM 0 | CSNK1A1; 10 µM 0 | CSNK1D; 10 µM 0 | DDR1; 10 µM 0 | DYRK1B; 10 µM 0 | DYRK2; 10 µM 0

Later entries

Cc1[nH]c(/C=C2\C(=O)Nc3ccc(F)cc32)c(C)c1C(=O)NCCN1CCCC1 [Toceranib]
inactive: CDK7; 2 µM 0 | CDK9; 2 µM 0 | CHEK2; 2 µM 0 | CSF1R; 2 µM 0 | CSK; 2 µM 0 | CSNK1A1; 2 µM 0 | CSNK1D; 2 µM 0 | DDR1; 2 µM 0 | DYRK1B; 2 µM 0 | DYRK2; 2 µM 0

COc1cc2nccc(Nc3cc(OC)c(OC)c(OC)c3)c2cc1OC [GAK inhibitor 49]
inactive: CDK7; 10 µM 0 | CDK9; 10 µM 0 | CHEK2; 10 µM 0 | CSF1R; 10 µM 0 | CSK; 10 µM 0 | CSNK1A1; 10 µM 0 | CSNK1D; 10 µM 0 | DDR1; 10 µM 0 | DYRK1B; 10 µM 0 | DYRK2; 10 µM 0

COc1ccc(S(=O)(=O)N(CCO)c2ccccc2CN(C)C/C=C/c2ccc(Cl)cc2)cc1 [KN-93 (hydrochloride)]
inactive: CDK7; 2.5 µM 0 | CDK9; 2.5 µM 0 | CHEK2; 2.5 µM 0 | CSF1R; 2.5 µM 0 | CSK; 2.5 µM 0 | CSNK1A1; 2.5 µM 0 | CSNK1D; 2.5 µM 0 | DDR1; 2.5 µM 0 | DYRK1B; 2.5 µM 0 | DYRK2; 2.5 µM 0

C=CC(=O)N1CCN(c2ncnc3c(F)c(-c4c(O)cccc4F)c(Cl)cc23)CC1
inactive: CDK7; 2.5 µM 0 | CDK7; 10 µM 0 | CDK9; 2.5 µM 0 | CDK9; 10 µM 0 | CHEK2; 2.5 µM 0 | CHEK2; 10 µM 0 | CSF1R; 2.5 µM 0 | CSF1R; 10 µM 0 | CSK; 2.5 µM 0 | CSK; 10 µM 0 | CSNK1A1; 2.5 µM 0 | CSNK1A1; 10 µM 0 | CSNK1D; 2.5 µM 0 | CSNK1D; 10 µM 0 | DDR1; 2.5 µM 0 | DDR1; 10 µM 0 | DYRK1B; 2.5 µM 0 | DYRK1B; 10 µM 0 | DYRK2; 2.5 µM 0 | DYRK2; 10 µM 0
